Reference: patent publication US20240082313A1, “PHARMACEUTICAL COMPOSITIONS AND THEIR METHODS OF USE” (The Trustees of Indiana University, priority 2021, published 2024)
Some results were stated once for a whole list of compounds, not compound by compound.

B1: enolase 1: enolase 1 recombinant protein (protein, UniProt P17182 2-434, looked up)
Alpha-enolase: SILRIHAREIFDSRGNPTVEVDLYTAKGLFRAAVPSGASTGIYEALELRDNDKTRFMGKGVSQAVEHINKTIAPALVSKKVNVVEQEKIDKLMIEMDGTENKSKFGANAILGVSLAVCKAGAVEKGVPLYRHIADLAGNPEVILPVPAFNVINGGSHAGNKLAMQEFMILPVGASSFREAMRIGAEVYHNLKNVIKEKYGKDATNVGDEGGFAPNILENKEALELLKTAIAKAGYTDQVVIGMDVAASEFYRSGKYDLDFKSPDDPSRYITPDQLADLYKSFVQNYPVVSIEDPFDQDDWGAWQKFTASAGIQVVGDDLTVTNPKRIAKAASEKSCNCLLLKVNQIGSVTESLQACKLAQSNGWGVMVSHRSGETEDTFIADLVVGLCTGQIKTGAPCRSERLAKYNQILRIEEELGSKAKFAGRSFRNPLAK
B2: Aldoa: recombinant protein, tumor-suppressing protein candidate (protein, UniProt P05064 2-364, looked up)
Fructose-bisphosphate …: PHPYPALTPEQKKELSDIAHRIVAPGKGILAADESTGSIAKRLQSIGTENTEENRRFYRQLLLTADDRVNPCIGGVILFHETLYQKADDGRPFPQVIKSKGGVVGIKVDKGVVPLAGTNGETTTQGLDGLSERCAQYKKDGADFAKWRCVLKIGEHTPSALAIMENANVLARYASICQQNGIVPIVEPEILPDGDHDLKRCQYVTEKVLAAVYKALSDHHVYLEGTLLKPNMVTPGHACTQKFSNEEIAMATVTALRRTVPPAVTGVTFLSGGQSEEEASINLNAINKCPLLKPWALTFSYGRALQASALKAWGGKKENLKAAQEEYIKRALANSLACQGKYTPSGQSGAAASESLFISNHAY
B3: vinculin: vinculin recombinant protein (protein, UniProt Q64727 1-1066, looked up)
Vinculin: MPVFHTRTIESILEPVAQQISHLVIMHEEGEVDGKAIPDLTAPVAAVQAAVSNLVRVGKETVQTTEDQILKRDMPPAFIKVENACTKLVQAAQMLQSDPYSVPARDYLIDGSRGILSGTSDLLLTFDEAEVRKIIRVCKGILEYLTVAEVVETMEDLVTYTKNLGPGMTKMAKMIDERQQELTHQEHRVMLVNSMNTVKELLPVLISAMKIFVTTKNSKNQGIEEALKNRNFTVEKMSAEINEIIRVLQLTSWDEDAWASKDTEAMKRALASIDSKLNQAKGWLRDPNASPGDAGEQAIRQILDEAGKVGELCAGKERREILGTCKMLGQMTDQVADLRARGQGASPVAMQKAQQVSQGLDVLTAKVENAARKLEAMTNSKQSIAKKIDAAQNWLADPNGGPEGEEQIRGALAEARKIAELCDDPKERDDILRSLGEIAALTSKLGDLRRQGKGDSPEARALAKQVATALQNLQTKTNRAVANSRPAKAAVHLEGKIEQAQRWIDNPTVDDRGVGQAAIRGLVAEGHRLANVMMGPYRQDLLAKCDRVDQLTAQLADLAARGEGESPQARALASQLQDSLKDLKAQMQEAMTQEVSDVFSDTTTPIKLLAVAATAPPDAPNREEVFDERAANFENHSGRLGATAEKAAAVGTANKSTVEGIQASVKTARELTPQVISAARILLRNPGNQAAYEHFETMKNQWIDNVEKMTGLVDEAIDTKSLLDASEEAIKKDLDKCKVAMANIQPQMLVAGATSIARRANRILLVAKREVENSEDPKFREAVKAASDELSKTISPMVMDAKAVAGNISDPGLQKSFLDSGYRILGAVAKVREAFQPQEPDFPPPPPDLEQLRLTDELAPPKPPLPEGEVPPPRPPPPEEKDEEFPEQKAGEVINQPMMMAARQLHDEARKWSSKGNDIIAAAKRMALLMAEMSRLVRGGSGTKRALIQCAKDIAKASDEVTRLAKEVAKQCTDKRIRTNLLQVCERIPTISTQLKILSTVKATMLGRTNISDEESEQATEMLVHNAQNLMQSVKETVREAEAASIKIRTDAGFTLRWVRKTPWYQ

tested on: tumor cells (4T1.2, EO771, MDA-MB-231) versus non-tumor cells; test: Tumor selectivity, three tumor cells and three non-tumor cells; format: cell-based; settings: over three tumor and three non-tumor cells

Q: For “Hsp90ab1: heat shock protein 90 alpha family class B member 1 recombinant protein”, which tumor selectivity is on record?
A: The tumor selectivity was “higher than 1”.

Q: B1 was tested. Which tumor selectivity did it give?
A: Its tumor selectivity is “higher than 1”.

Q: For B2, which tumor selectivity is on record?
A: The tumor selectivity was “higher than 1”.

Q: Which tumor selectivity does the source give for B3 here?
A: The tumor selectivity was “higher than 1”.
